Results published in paper PMC9943661.

Tests used:
[1] = molecular target: OGG1 (nuclear extract) (Homo sapiens (hSAEC)) (UniProt O15527); test: EMSA supershift; conditions: 10 mM HEPES pH 7.9, 10 mM KCl, 1.5 mM MgCl2, 1 mM DTT, 5% glycerol, 20 nM Cy5-DNA, on ice, 6% PAGE at 4 C, protein in an extract, label: 5'-Cy5 on strand 1
[2] = molecular target: SMAD2 (nuclear extract) (Homo sapiens (hSAEC)) (UniProt Q15796); test: EMSA supershift; conditions: anti-SMAD2, 10 mM HEPES pH 7.9, 10 mM KCl, 1.5 mM MgCl2, 1 mM DTT, 5% glycerol, 20 nM Cy5-DNA, on ice, 6% PAGE at 4 C, protein in an extract, label: 5'-Cy5 on strand 1
[3] = molecular target: SMAD3 (nuclear extract) (Homo sapiens (hSAEC)) (UniProt P84022); test: EMSA supershift; conditions: anti-SMAD3, 10 mM HEPES pH 7.9, 10 mM KCl, 1.5 mM MgCl2, 1 mM DTT, 5% glycerol, 20 nM Cy5-DNA, on ice, 6% PAGE at 4 C, protein in an extract, label: 5'-Cy5 on strand 1
[4] = molecular target: T1, SMAD4 (nuclear extract) (Homo sapiens (hSAEC)) (UniProt Q13485); test: EMSA supershift; conditions: anti-SMAD4, 10 mM HEPES pH 7.9, 10 mM KCl, 1.5 mM MgCl2, 1 mM DTT, 5% glycerol, 20 nM Cy5-DNA, on ice, 6% PAGE at 4 C, protein in an extract, label: 5'-Cy5 on strand 1
T1 sequence (looked up, limits assumed): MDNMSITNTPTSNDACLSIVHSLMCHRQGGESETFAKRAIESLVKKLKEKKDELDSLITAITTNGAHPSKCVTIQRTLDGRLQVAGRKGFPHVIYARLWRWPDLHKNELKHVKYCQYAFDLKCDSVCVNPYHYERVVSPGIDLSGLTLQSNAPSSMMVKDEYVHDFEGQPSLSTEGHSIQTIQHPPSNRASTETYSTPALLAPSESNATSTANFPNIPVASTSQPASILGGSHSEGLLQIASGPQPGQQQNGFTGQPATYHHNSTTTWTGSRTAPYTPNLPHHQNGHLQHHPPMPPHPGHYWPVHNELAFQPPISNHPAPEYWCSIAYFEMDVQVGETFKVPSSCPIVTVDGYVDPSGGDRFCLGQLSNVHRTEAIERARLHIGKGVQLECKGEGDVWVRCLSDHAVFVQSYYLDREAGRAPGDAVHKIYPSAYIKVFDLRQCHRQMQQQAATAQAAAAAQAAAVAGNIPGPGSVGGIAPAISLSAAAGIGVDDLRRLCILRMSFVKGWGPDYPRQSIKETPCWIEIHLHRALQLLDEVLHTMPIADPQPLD

MTH1 = test: EMSA; conditions: 100 nM MTH1; 8-oxoG at strand 2 position 43 from its 5' end (opposite strand 1 position 15); 10 mM HEPES pH 7.9, 10 mM KCl, 1.5 mM MgCl2, 1 mM DTT, 5% glycerol, 20 nM Cy5-DNA, on ice; 6% PAGE at 4 C; recombinant protein; label: 5'-Cy5 on strand 1
NEIL2 = test: EMSA; conditions: 100 nM NEIL2; 8-oxoG at strand 2 position 43 from its 5' end (opposite strand 1 position 15); 10 mM HEPES pH 7.9, 10 mM KCl, 1.5 mM MgCl2, 1 mM DTT, 5% glycerol, 20 nM Cy5-DNA, on ice; 6% PAGE at 4 C; recombinant protein; label: 5'-Cy5 on strand 1
SMAD3 = SMAD3 (UniProt P84022); test: EMSA; conditions: 8-oxoG at strand 2 position 43 from its 5' end (opposite strand 1 position 15), 10 mM HEPES pH 7.9, 10 mM KCl, 1.5 mM MgCl2, 1 mM DTT, 5% glycerol, 20 nM Cy5-DNA, on ice, 6% PAGE at 4 C, recombinant protein, residues 1-425, label: 5'-Cy5 on strand 1
UDG = test: EMSA; conditions: 100 nM UDG; 8-oxoG at strand 2 position 43 from its 5' end (opposite strand 1 position 15); 10 mM HEPES pH 7.9, 10 mM KCl, 1.5 mM MgCl2, 1 mM DTT, 5% glycerol, 20 nM Cy5-DNA, on ice; 6% PAGE at 4 C; recombinant protein; label: 5'-Cy5 on strand 1
[5] = 8-oxoG at strand 2 position 43 from its 5' end (opposite strand 1 position 15)

| Sequence | binding result ([1]; anti-OGG1, via protein-protein interaction) | binding result [2] | binding result [3] | binding result [4] | binding result (MTH1) | binding result (NEIL2) | binding result (SMAD3; OGG1 + SU0268) | binding result (SMAD3; OGG1 + TH5487) | binding result (UDG) | binding result ([1]; anti-OGG1, 8-oxoG at strand 2 position 43 from its 5' end (opposite strand 1 position 15)) | binding result [2, 5] | binding result [3, 5] | binding result [4, 5] |
| --- | --- | --- | --- | --- | --- | --- | --- | --- | --- | --- | --- | --- | --- |
| CCCCAGGGTGAGCCCAGCTCAGACTATCATCCGGAAAGCCCCCAAAAGTCCCAGCCC (double strand) | binds | binds | binds | binds |  |  |  |  |  |  |  |  |  |
| CCCCAGGGTGAGCCCAGCTCAGACTATCATCCGGAAAGCCCCCAAAAGTCCCAGCCC (double strand) [G'3] |  |  |  |  | no binding | no binding | binds more weakly | binds more weakly | no binding | binds | binds | binds | binds |

For at least one entry, the source does not settle the construct or the ends of the probe. For some of these results: No signal at the amounts used counts as a negative. For some of these results: A weaker result is weaker than the reference pair of the same experiment. For some of these results: Where cells or extracts were used, other partners may take part. For some of these results: At least one verdict rests on a figure or table, not on a statement of the authors. For some of these results: Tags and fusion partners may be left off the protein sequences shown.
